Our source for the binding values is PMC9485235, “Structural insights into cyanobacterial RuBisCO assembly coordinated by two chaperones Raf1 and RbcX” (Cell Discovery, 2022).

In this assay the target is RbcX from Anabaena sp. PCC 7120, co-expressed in the ternary complex (Anabaena sp. PCC 7120). Kind of assay: cryo-EM structure; RbcL–Raf1–RbcX ternary complex co-expressed in E. coli with GroEL-GroES, purified by Ni-NTA and gel filtration in 50 mM Tris-HCl pH 8.0, 20 mM NaCl, 5 mM MgCl2; ~2 mg/mL; D4 symmetry; 3.3 Å; both purified. Background: In gel filtration, larger molecules generally elute earlier.

No constants are given. Whether binding was seen depends on the method and setting. Binding calls can cover weak binding; strength is not graded here.

B1: RuBisCO accumulation factor 1 (Raf1) from Anabaena sp. PCC 7120 (protein, UniProt Q8YLP6 1-361)
chain: MTELPPNAPNPENATNELAQELLRKLRQKQGNWVEWGQAIASLQKSGYNPQDIFEATGFEPVQQNQVIVGSQVYNSLEKSGASAATLAHYATRGSDVLYELRLLTHEERAAAGDLTFTHKVDADEAREIAKAIKDFSRFRILPEGFSNHPGDAVAYQAWKLARQYSDLQERSRLIARGLRFAHSETARKQIEQLLVDFTVVSQRPAPIPPFFRFDTEDELPRIVPVVGQLPLKAEELKAVPLVEEIEPFRLVKFSGEQAWVALPGWQVLLAAEDPVTILATSDRFPKQNQTEPGPVLVVVDRSQREWNDFSYFVVDHDGELDFQWFETKPEFPILGKVIILVRPRRILDENVTKDSWQIDE
In the case of B1, the binding entry is reported as “binds”.
